From patent publication US20020160403A1
These are yes or no findings as the source states them, for the method shown. For some assays here: Binding seen in cells or lysates may run through a third protein. Some results given as binding are weak or reduced against the parent protein; the word gives no strength. Values belong to the substance of their own block, whether it stands above or below them.

The chains behind the UniProt entries cited, without tags or fusion partners. Where a name states a change or a piece, a line headed by the entry shows the natural chain unless it says otherwise.
UniProt O43683: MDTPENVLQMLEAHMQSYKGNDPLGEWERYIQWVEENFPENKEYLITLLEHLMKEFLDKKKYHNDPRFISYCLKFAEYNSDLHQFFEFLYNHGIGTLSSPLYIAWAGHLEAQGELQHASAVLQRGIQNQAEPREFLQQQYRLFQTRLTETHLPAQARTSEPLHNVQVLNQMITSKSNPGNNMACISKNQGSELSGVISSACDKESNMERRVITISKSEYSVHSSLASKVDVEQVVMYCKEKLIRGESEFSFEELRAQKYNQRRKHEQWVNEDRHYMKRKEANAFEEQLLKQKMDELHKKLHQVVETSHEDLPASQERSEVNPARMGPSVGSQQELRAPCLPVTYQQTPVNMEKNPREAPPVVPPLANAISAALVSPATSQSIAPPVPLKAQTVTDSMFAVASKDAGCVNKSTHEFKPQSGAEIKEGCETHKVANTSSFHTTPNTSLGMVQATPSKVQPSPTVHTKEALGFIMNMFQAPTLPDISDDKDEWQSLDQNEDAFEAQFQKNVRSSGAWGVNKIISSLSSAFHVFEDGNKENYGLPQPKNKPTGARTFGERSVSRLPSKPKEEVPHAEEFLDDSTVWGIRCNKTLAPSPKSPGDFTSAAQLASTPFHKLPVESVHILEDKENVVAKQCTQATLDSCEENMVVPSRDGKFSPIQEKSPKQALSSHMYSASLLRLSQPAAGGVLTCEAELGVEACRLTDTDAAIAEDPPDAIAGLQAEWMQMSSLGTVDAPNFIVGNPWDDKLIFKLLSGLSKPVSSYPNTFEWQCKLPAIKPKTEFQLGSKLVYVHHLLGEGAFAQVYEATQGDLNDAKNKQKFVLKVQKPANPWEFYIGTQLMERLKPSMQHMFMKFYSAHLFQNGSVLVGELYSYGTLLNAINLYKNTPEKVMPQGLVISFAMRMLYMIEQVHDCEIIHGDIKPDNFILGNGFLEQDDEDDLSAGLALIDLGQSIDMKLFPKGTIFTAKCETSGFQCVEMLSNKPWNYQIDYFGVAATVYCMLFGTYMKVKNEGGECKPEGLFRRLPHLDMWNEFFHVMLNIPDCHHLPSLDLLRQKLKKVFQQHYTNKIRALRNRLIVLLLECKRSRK
UniProt O43684: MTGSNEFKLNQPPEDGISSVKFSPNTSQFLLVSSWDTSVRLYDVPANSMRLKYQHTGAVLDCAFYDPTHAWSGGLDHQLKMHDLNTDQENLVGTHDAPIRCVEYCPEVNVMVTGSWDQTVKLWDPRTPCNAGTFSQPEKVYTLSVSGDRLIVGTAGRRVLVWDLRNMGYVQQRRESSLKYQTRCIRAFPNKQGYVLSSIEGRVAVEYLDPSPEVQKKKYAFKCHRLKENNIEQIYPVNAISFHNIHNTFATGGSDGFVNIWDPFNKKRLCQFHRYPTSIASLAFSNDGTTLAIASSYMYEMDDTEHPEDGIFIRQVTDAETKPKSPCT

Tests used:
[1] = biological target: huBUB1 protein (plasmid p337-50) (human) (UniProt O43683); assay: co-immunoprecipitation (refers to Example 10)
[2] = biological target: HA-huBUB1 (human) (UniProt O43683); assay: co-translation with HA-huBUB1; format not described
[3] = biological target: huBUB1 protein (plasmid p337-50) (human) (UniProt O43683); assay: co-immunoprecipitation of in vitro translated proteins
[4] = biological target: FLAG-huBUB3 protein fusion (plasmid p322-1) (human) (UniProt O43684); assay: retention by HA-huBUB1 before kinase reactions; format not described
[5] = biological target: huBUB3 protein (untagged; expression plasmid p291-2, ~2.7 kb variant) (human) (UniProt O43684); assay: as above
[6] = biological target: huBUB1 protein (plasmid p337-50) (human) (UniProt O43683); assay: co-translation in vitro, anti-FLAG co-immunoprecipitation
[7] = biological target: huBUB1 protein (plasmid p337-50) (human) (UniProt O43683); assay: co-translation in vitro, anti-FLAG co-immunoprecipitation, SDS-PAGE autoradiography
[8] = biological target: huBUB1 protein (plasmid p337-50) (human) (UniProt O43683); assay: co-immunoprecipitation of 35S-labeled co-translated proteins with M1 anti-FLAG agarose

- binding [1]: binds
- binding [2]: binds
- binding [3]: binds
Substance: huBUB3 protein (untagged; expression plasmid p291-2, ~2.7 kb variant) (from UniProt O43684 1-328)

- binding [4]: binds
- binding [5]: binds
Substance: HA-huBUB1 (from UniProt O43683 1-1085) (enzyme)

- binding [6]: binds
- binding [7]: binds
- binding [8]: binds
Substance: FLAG-huBUB3 protein fusion (plasmid p322-1) (from UniProt O43684 2-328)
